# Experimental data published in patent US11986507B1, “Micronutrient composition to improve men's health” (priority 2023, dated 2024).
# For at least one compound, name, drawing or mass did not settle the structure.
# System: IL6 release by Human Aortic Endothelial Cells (HAEC)
# Assay: IL6 secretion by human aortic endothelial cells (HAEC) in the presence of LPS (ELISA)
# Type: cell-based
# Details: 24 h, 20 ng/ml LPS, with 200 mcM Ascorbate or w/o Ascorbate (FIG. 13)
# Protocol: Cytokine assay in Human Aortic endothelial cells (AoEC): Human Aortic endothelial cells (AoEC, Lonza) were cultured in EBG-2 cell culture medium (Lonza) and used in experiments at 5-8 passages. AoEC were seeded in 96-well plates covered with fibronectin or collagen (COSTAR) in 100 mcl/well growth medium. After reaching confluency cells were supplemented with tested components in 100 mcl growth medium for 48 hour incubation. Levels of cytokines were assayed with corresponding ELISA assays (R&D Systems).
# The test was carried out by incubating HAEC cells for 24 h in the presence of 20 ng/ml LPS (all samples) and 200 mcM Ascorbate or w/o Ascorbate.
compound,measurement,value
O=C(/C=C/C=C/c1ccc2c(c1)OCO2)N1CCCCC1 [piperine],effect of individual compounds on IL-6 secretion (in words),significant inhibitory effect
